The values below come from US8753847.

In this data set the test system is T1, TspMI restriction endonuclease (Thermus sp.).
T1 sequence: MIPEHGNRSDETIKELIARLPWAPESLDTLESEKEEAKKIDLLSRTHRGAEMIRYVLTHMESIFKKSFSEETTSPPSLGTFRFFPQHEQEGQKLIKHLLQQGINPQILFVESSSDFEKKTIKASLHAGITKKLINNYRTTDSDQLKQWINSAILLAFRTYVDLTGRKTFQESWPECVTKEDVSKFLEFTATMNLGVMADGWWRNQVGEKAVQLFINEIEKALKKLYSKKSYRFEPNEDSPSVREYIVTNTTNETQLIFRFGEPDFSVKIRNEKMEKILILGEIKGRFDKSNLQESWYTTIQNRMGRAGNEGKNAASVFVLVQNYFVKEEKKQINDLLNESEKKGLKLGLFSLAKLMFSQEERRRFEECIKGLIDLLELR
Put plainly: enzyme reaction in vitro. The conditions noted are these: expressed at 37 C then briefly 65 C; gene selected by cleavage after three rounds; protein translated in vitro; protein details: PURE system expression in emulsion droplets.

Protein sequences can lack the tags named with them.

As for CCCGGG (double strand), the “activity on this sequence” value was “active”.
